Where two headings read alike, the source gives them in different places. These are yes or no findings as the source states them, for the method shown. Binding seen in cells or lysates may run through a third protein. A result given as binding can be weak or reduced; the word gives no strength.

Sequences of proteins named here, by UniProt entry; tags and fusion partners are left off. A change or cut given only in a name is not applied to a line headed by its entry.
UniProt Q02383: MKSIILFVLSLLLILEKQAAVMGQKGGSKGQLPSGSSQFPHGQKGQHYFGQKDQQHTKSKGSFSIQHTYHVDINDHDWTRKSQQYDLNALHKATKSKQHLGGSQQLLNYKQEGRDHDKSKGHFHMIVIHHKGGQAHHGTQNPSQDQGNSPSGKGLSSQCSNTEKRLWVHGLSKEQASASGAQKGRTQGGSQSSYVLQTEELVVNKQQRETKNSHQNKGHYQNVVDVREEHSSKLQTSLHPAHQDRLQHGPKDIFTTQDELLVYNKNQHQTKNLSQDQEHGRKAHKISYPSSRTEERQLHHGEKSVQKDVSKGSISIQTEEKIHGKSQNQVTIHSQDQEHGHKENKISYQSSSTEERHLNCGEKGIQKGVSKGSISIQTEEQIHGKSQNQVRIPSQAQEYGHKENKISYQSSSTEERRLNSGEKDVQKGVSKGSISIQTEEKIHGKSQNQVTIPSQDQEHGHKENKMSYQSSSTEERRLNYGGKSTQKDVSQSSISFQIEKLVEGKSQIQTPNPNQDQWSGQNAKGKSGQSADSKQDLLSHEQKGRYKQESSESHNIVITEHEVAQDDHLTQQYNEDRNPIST

The target in assay [1] is GST-SEMG2 (truncated SEMG2 lacking the signal peptide, 23-562 a.a.) (human) (UniProt Q02383). Kind of assay: pull-down; 50 µg GST-SEMG1 or GST-SEMG2 (GST as control) incubated 3 h with MCF7 cell extract pre-incubated with GST; western blot with antibodies against LDHA, PKM2 and IDH2; only the target purified. On the technique in general: Immunoblotting shows a protein as a band on a membrane.

The target is the same in assay [2]. The assay is described as above. The source holds these as a separate data set.

In the case of “pyruvate kinase M2 (PKM2), endogenous in MCF7 cell extract (from UniProt P14618-1 1-531) (enzyme)”, in assay [1], the binding result is reported as “binds”.

B1: IDH2, endogenous in MCF7 cell extract (enzyme, UniProt P48735 40-452)
chain: ADKRIKVAKPVVEMDGDEMTRIIWQFIKEKLILPHVDIQLKYFDLGLPNRDQTDDQVTIDSALATQKYSVAVKCATITPDEARVEEFKLKKMWKSPNGTIRNILGGTVFREPIICKNIPRLVPGWTKPITIGRHAHGDQYKATDFVADRAGTFKMVFTPKDGSGVKEWEVYNFPAGGVGMGMYNTDESISGFAHSCFQYAIQKKWPLYMSTKNTILKAYDGRFKDIFQEIFDKHYKTDFDKNKIWYEHRLIDDMVAQVLKSSGGFVWACKNYDGDVQSDILAQGFGSLGLMTSVLVCPDGKTIEAEAAHGTVTRHYREHQKGRPTSTNPIASIFAWTRGLEHRGKLDGNQDLIRFAQMLEKVCVETVESGAMTKDLAGCIHGLSNVKLNEHFLNTTDFLDTIKSNLDRALGRQ
Regarding B1, in assay [2], the binding result was “binds”.
